Reference: PubChem BioAssay AID1224826 (NIAID, 2016)

Aim: 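Regulators of Tlr4 signalling leading to Tnf-alpha expression in macrophages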 (primary screen)
Cell system: RAW264.7 G9 macrophages from mouse bearing reporters for p65 (GFP) and the Tnf promoter (mCherry)
Reagents: siRNA pool against mouse genes, 100 nM
Time to read-out: 16 h of LPS stimulation, after 2 days of siRNA transfection
Conditions: bacterial lipopolysaccharide (Salmonella minnesota R595), 10 ng/ml
Measurement: 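Imaged Tnf reporter mCherry in nuclei, minus background, normalised per plate to the median and expressed as robust z-scores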
Reading the numbers: Tnf reporter robust z-score: higher = stronger Tnf promoter reporter signal after LPS
Active means: 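a well counts as active at a score of -1.3 or below (Tlr4 knock-down control median) or above 3 (raised signal); controls and wells holding fewer than 50 cells are excluded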
Meaning of the calls: active = Tnf reporter clearly lowered or raised; inactive = no clear change in Tnf reporter
This is one part, drawn at random, of about 17,000 reagents tested. Of all reagents, about 1,110 (6.6%) got an active call. 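Active means lowered or raised reporter signal; replicate intensities are raw and not normalised per plate.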 Reagents against one gene are numbered here. A reagent listed more than once was tested more than once; the source does not tell the runs apart. Not all columns of the deposit are shown.

| gene | pool no. | Tnf reporter robust z-score | fewer than 50 cells in well | Outcome |
| --- | --- | --- | --- | --- |
| Atxn2 | 1 | -0.53 | enough cells in well | inactive |
| Prss39 | 1 | -1.08 | enough cells in well | inactive |
| Nek1 | 1 | -0.25 | enough cells in well | inactive |
| Spsb4 | 1 | – | fewer than 50 cells per well; well left out of calls | inactive |
| Scgb3a2 | 1 | 0.51 | enough cells in well | inactive |
| Cubn | 1 | -1.15 | enough cells in well | inactive |
| Taf8 | 1 | 0.38 | enough cells in well | inactive |
| Kmt5b | 1 | 1.49 | enough cells in well | inactive |
| Atp5me | 1 | 0.2 | enough cells in well | inactive |
| Trim45 | 1 | – | fewer than 50 cells per well; well left out of calls | inactive |
| Dnm3 | 1 | 0.07 | enough cells in well | inactive |
| Ugt1a2 | 1 | – | fewer than 50 cells per well; well left out of calls | inactive |
| Ifit3 | 1 | – | fewer than 50 cells per well; well left out of calls | inactive |
| Bicd1 | 1 | 0.84 | enough cells in well | inactive |
| Gm9871 | 1 | 0.08 | enough cells in well | inactive |
| Or8u8 | 1 | 1.28 | enough cells in well | inactive |
| Pyurf | 1 | -1.1 | enough cells in well | inactive |
| Zcchc7 | 1 | 0.96 | enough cells in well | inactive |
| Zcchc7 | 2 | -0.71 | enough cells in well | inactive |
| Srp54a | 1 | – | fewer than 50 cells per well; well left out of calls | inactive |
| C2 | 1 | 0.51 | enough cells in well | inactive |
| Trim17 | 1 | -0.2 | enough cells in well | inactive |
| Ntn4 | 1 | 1.09 | enough cells in well | inactive |
| Nipbl | 1 | 1.56 | enough cells in well | inactive |
| Nipbl | 2 | – | fewer than 50 cells per well; well left out of calls | inactive |
| Tgfa | 1 | -0.41 | enough cells in well | inactive |
| Med12 | 1 | -1.18 | enough cells in well | inactive |
| Wtap | 1 | 1.73 | enough cells in well | inactive |
| Mrap | 1 | 1.18 | enough cells in well | inactive |
| Dglucy | 1 | -0.94 | enough cells in well | inactive |
| Rab11fip3 | 1 | -1.34 | enough cells in well | active |
| Cox7b | 1 | -0.3 | enough cells in well | inactive |
| Siglecg | 1 | 0.22 | enough cells in well | inactive |
| Gab1 | 1 | -0.92 | enough cells in well | inactive |
| Pcnx1 | 1 | 1.05 | enough cells in well | inactive |
| Med16 | 1 | -0.17 | enough cells in well | inactive |
| Actrt2 | 1 | 0.1 | enough cells in well | inactive |
| C1galt1 | 1 | 0.88 | enough cells in well | inactive |
| Emid1 | 1 | 2.01 | enough cells in well | inactive |
| Klrb1f | 1 | -0.32 | enough cells in well | inactive |
| Anks3 | 1 | – | fewer than 50 cells per well; well left out of calls | inactive |
| Gpr55 | 1 | -0.46 | enough cells in well | inactive |
| Or9i1 | 1 | -1.18 | enough cells in well | inactive |
| Dram1 | 1 | -0.39 | enough cells in well | inactive |
| Spin1 | 1 | -0.72 | enough cells in well | inactive |
| Or5aq1 | 1 | 1.2 | enough cells in well | inactive |
| Mylpf | 1 | -0.45 | enough cells in well | inactive |
| Bdkrb2 | 1 | 0.23 | enough cells in well | inactive |
| Bdkrb2 | 1 | 0.71 | enough cells in well | inactive |
| Nrg1 | 1 | -0.58 | enough cells in well | inactive |
| Meg3 | 1 | 1.55 | enough cells in well | inactive |
| Magea9-ps | 1 | -0.91 | enough cells in well | inactive |
| Apod | 1 | 0.23 | enough cells in well | inactive |
| Asph | 1 | -0.69 | enough cells in well | inactive |
| Aurka | 1 | – | fewer than 50 cells per well; well left out of calls | inactive |
| Gbp8 | 1 | – | fewer than 50 cells per well; well left out of calls | inactive |
| Sin3b | 1 | -0.33 | enough cells in well | inactive |
| Myo1e | 1 | -0.77 | enough cells in well | inactive |
